Values joined by “and” are separate entries in the source; they are usually repeats but may differ in a detail not shown here. Equal entries are not always repeated.
Columns and labels:
[1] = Matrix effects on quantification (untreated human saliva); conditions: Run 34; for % Bias QC-High / Mean concentration QC-High / Concentration QC-High: nominal 80.0 ng/mL
[2] = Quality controls: accuracy and precision, batch acceptance (cholestyramine-treated human saliva); conditions: for Mean quality control concentration: Table 33, n 9

## C[C@H](CCC(=O)NCCS(=O)(=O)O)[C@H]1CC[C@H]2[C@@H]3[C@H](O)C[C@@H]4C[C@H](O)CC[C@]4(C)[C@H]3CC[C@]12C [Taurochenodeoxycholic Acid, Taurochenodeoxycholic acid]
[1]; Cholestyramine-Treated Human Saliva, nominal 8.00 ng/mL
  % Bias QC-Mid: 4.7%
[1]; Cholestyramine-Treated Human Saliva, nominal 8.00 ng/mL, n 3
  Mean concentration QC-Mid: 8.37 ng/mL
[1]; Cholestyramine-Treated Human Saliva, nominal 8.00 ng/mL, replicate
  Concentration QC-Mid: 8.50 ng/mL and 8.41 ng/mL and 8.21 ng/mL
[1]; Cholestyramine-Treated Human Saliva
  % Bias QC-High: 3.1%
[1]; Cholestyramine-Treated Human Saliva, n 3
  Mean concentration QC-High: 82.5 ng/mL
[1]; Cholestyramine-Treated Human Saliva, replicate
  Concentration QC-High: 80.3 ng/mL and 83.1 ng/mL and 84.1 ng/mL
[1]; Untreated Human Saliva, unspiked, n 6
  Mean concentration Control Blank (endogenous level): BQL (Below quantitation limit (<0.500 ng/mL))
[1]; Untreated Human Saliva, unspiked, replicate
  Concentration, Control Blank (endogenous level): BQL (Below quantitation limit (<0.500 ng/mL))
[1]; Untreated Human Saliva
  % Bias QC-High: 5.6%
[1]; Untreated Human Saliva, n 6
  Mean concentration QC-High: 84.5 ng/mL
[1]; Untreated Human Saliva, replicate
  Concentration QC-High: 85.5 ng/mL and 82.5 ng/mL and 85.3 ng/mL and 85.8 ng/mL and 84.1 ng/mL and 83.7 ng/mL
[2]; QC-High, nominal 80.0 ng/mL
  Mean quality control concentration: 82.3 ng/mL
[2]; QC-Mid, nominal 8.00 ng/mL
  Mean quality control concentration: 7.84 ng/mL
[2]; nominal 8.00 ng/mL, Analytical Run 35, cholestyramine-treated human saliva, replicate
  Concentration, batch acceptance QC-Mid: 9.45 ng/mL and 8.01 ng/mL and 8.00 ng/mL
[2]; nominal 80.0 ng/mL, Run 31
  Intra-Run % Bias, QC-High: 23.0%
[2]; nominal 80.0 ng/mL, Run 32
  Intra-Run % Bias, QC-High: 13.0%
[2]; nominal 80.0 ng/mL, Run 33
  Intra-Run % Bias, QC-High: 5.8%

From patent publication US20200138854A1, “Method of Detecting and Quantifying Bile Acid from Saliva” (Ironwood Pharmaceuticals, Inc., priority 2017, published 2020)
